Measured values as given in the supplement of paper PMC7661543.
± gives the standard deviation of the averaged measurements. Differences between knockout arms are mostly noise.

Test system: BT-20
Test: relative cell number vs DMSO control (72 h) (% of DMSO); higher = less growth inhibition (more cells)
Procedure: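 QMAP-Seq: a pool of 5 breast cancer cell lines (ZR-75-1, SKBR3, HCC-38, MDA-MB-231, BT-20), each carrying 12 doxycycline-inducible Cas9 sgRNA perturbations (11 knockouts plus non-targeting sgNT), was treated with compounds for 72 h at four 10-fold doses (10 nM-10 uM or 1 nM-1 uM range). Barcodes were amplified and sequenced, and cell number was interpolated from 293T spike-in standard curves. The result is expressed as % of the median of DMSO wells. Two biological replicates.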

C[C@]1(O)C[C@@H](c2nc(-c3ccc4ccc(-c5ccccc5)nc4c3)c3c(N)nccn32)C1 [Linsitinib]
Conditions	relative cell number
sgRNA knockout: sgATF3, 10 nM	97.3 ± 2.6
sgRNA knockout: sgATF3, 100 nM	97.7 ± 4.6
sgRNA knockout: sgATF3, 1000 nM	104 ± 8.8
sgRNA knockout: sgATF3, 10000 nM	92.4 ± 9.5
sgRNA knockout: sgATF4, 10 nM	103 ± 11
sgRNA knockout: sgATF4, 100 nM	110 ± 2
sgRNA knockout: sgATF4, 1000 nM	88.7 ± 1.7
sgRNA knockout: sgATF4, 10000 nM	108 ± 12
sgRNA knockout: sgATF6, 10 nM	90.3 ± 7.8
sgRNA knockout: sgATF6, 100 nM	99.4 ± 2.1
sgRNA knockout: sgATF6, 1000 nM	96.4 ± 9.9
sgRNA knockout: sgATF6, 10000 nM	93.7 ± 1.2
sgRNA knockout: sgATG7, 10 nM	97.81 ± 0.64
sgRNA knockout: sgATG7, 100 nM	105 ± 3.9
sgRNA knockout: sgATG7, 1000 nM	97.7 ± 14
sgRNA knockout: sgATG7, 10000 nM	92.5 ± 3.1
sgRNA knockout: sgERN1, 10 nM	89.5 ± 1.6
sgRNA knockout: sgERN1, 100 nM	92.2 ± 7.9
sgRNA knockout: sgERN1, 1000 nM	98.6 ± 4.7
sgRNA knockout: sgERN1, 10000 nM	97.8 ± 7.1
sgRNA knockout: sgHSF1, 10 nM	93.1 ± 7.8
sgRNA knockout: sgHSF1, 100 nM	104 ± 10
sgRNA knockout: sgHSF1, 1000 nM	86.6 ± 16
sgRNA knockout: sgHSF1, 10000 nM	95.2 ± 4.3
sgRNA knockout: sgHSF2, 10 nM	85.1 ± 12
sgRNA knockout: sgHSF2, 100 nM	96.4 ± 7.7
sgRNA knockout: sgHSF2, 1000 nM	112 ± 3
sgRNA knockout: sgHSF2, 10000 nM	105 ± 1.5
sgRNA knockout: sgKEAP1, 10 nM	88.6 ± 19
sgRNA knockout: sgKEAP1, 100 nM	101 ± 3.6
sgRNA knockout: sgKEAP1, 1000 nM	89 ± 5
sgRNA knockout: sgKEAP1, 10000 nM	85.4 ± 8.2
sgRNA knockout: sgNFE2L2, 10 nM	106 ± 12
sgRNA knockout: sgNFE2L2, 100 nM	120 ± 20
sgRNA knockout: sgNFE2L2, 1000 nM	99 ± 5.4
sgRNA knockout: sgNFE2L2, 10000 nM	110 ± 7.9
sgRNA knockout: sgSLC35F2, 10 nM	94.1 ± 16
sgRNA knockout: sgSLC35F2, 100 nM	97.2 ± 2.7
sgRNA knockout: sgSLC35F2, 1000 nM	95.7 ± 6
sgRNA knockout: sgSLC35F2, 10000 nM	87.4 ± 14
sgRNA knockout: sgXBP1, 10 nM	109 ± 6.7
sgRNA knockout: sgXBP1, 100 nM	106 ± 5
sgRNA knockout: sgXBP1, 1000 nM	94.5 ± 4.8
sgRNA knockout: sgXBP1, 10000 nM	97.5 ± 5.7

Cc1cnc(-c2cnc(NCCNc3ccc(C#N)cn3)nc2-c2ccc(Cl)cc2Cl)[nH]1
Conditions	relative cell number
sgRNA knockout: sgATF3, 10 nM	103 ± 18
sgRNA knockout: sgATF3, 100 nM	98.16 ± 0.22
sgRNA knockout: sgATF3, 1000 nM	106 ± 14
sgRNA knockout: sgATF3, 10000 nM	106 ± 2
sgRNA knockout: sgATF4, 10 nM	93.9 ± 4.1
sgRNA knockout: sgATF4, 100 nM	112 ± 10
sgRNA knockout: sgATF4, 1000 nM	94.2 ± 24
sgRNA knockout: sgATF4, 10000 nM	112 ± 10
sgRNA knockout: sgATF6, 10 nM	79.4 ± 0.87
sgRNA knockout: sgATF6, 100 nM	94.97 ± 0.097
sgRNA knockout: sgATF6, 1000 nM	101 ± 27
sgRNA knockout: sgATF6, 10000 nM	101 ± 22
sgRNA knockout: sgATG7, 10 nM	93.5 ± 3.6
sgRNA knockout: sgATG7, 100 nM	94.8 ± 1.3
sgRNA knockout: sgATG7, 1000 nM	110 ± 1
sgRNA knockout: sgATG7, 10000 nM	98.7 ± 1.4
sgRNA knockout: sgERN1, 10 nM	90.06 ± 0.27
sgRNA knockout: sgERN1, 100 nM	97.9 ± 13
sgRNA knockout: sgERN1, 1000 nM	102 ± 6.2
sgRNA knockout: sgERN1, 10000 nM	115 ± 23
sgRNA knockout: sgHSF1, 10 nM	90.4 ± 16
sgRNA knockout: sgHSF1, 100 nM	85.8 ± 6.7
sgRNA knockout: sgHSF1, 1000 nM	103 ± 15
sgRNA knockout: sgHSF1, 10000 nM	110 ± 2
sgRNA knockout: sgHSF2, 10 nM	85.7 ± 4.2
sgRNA knockout: sgHSF2, 100 nM	94.6 ± 8.7
sgRNA knockout: sgHSF2, 1000 nM	106 ± 35
sgRNA knockout: sgHSF2, 10000 nM	130 ± 32
sgRNA knockout: sgKEAP1, 10 nM	97.6 ± 9.1
sgRNA knockout: sgKEAP1, 100 nM	79.9 ± 2.1
sgRNA knockout: sgKEAP1, 1000 nM	100 ± 17
sgRNA knockout: sgKEAP1, 10000 nM	110 ± 23
sgRNA knockout: sgNFE2L2, 10 nM	80.4 ± 14
sgRNA knockout: sgNFE2L2, 100 nM	97.2 ± 8
sgRNA knockout: sgNFE2L2, 1000 nM	99.5 ± 1.7
sgRNA knockout: sgNFE2L2, 10000 nM	121 ± 4.5
sgRNA knockout: sgSLC35F2, 10 nM	98.5 ± 13
sgRNA knockout: sgSLC35F2, 100 nM	103 ± 24
sgRNA knockout: sgSLC35F2, 1000 nM	91 ± 13
sgRNA knockout: sgSLC35F2, 10000 nM	116 ± 35
sgRNA knockout: sgXBP1, 10 nM	106 ± 19
sgRNA knockout: sgXBP1, 100 nM	101 ± 7.9
sgRNA knockout: sgXBP1, 1000 nM	104 ± 10
sgRNA knockout: sgXBP1, 10000 nM	112 ± 6.3
